Test results reported in PMC7153906.
No constants are given. Whether binding was seen depends on the method and setting. In cells and extracts the contact can be indirect. A yes stands for co-enrichment or nearness to the bait. Other partners may have been found.

Molecular target: T1, TMEM98-BirA* (mouse) (UniProt Q91X86)
T1 sequence: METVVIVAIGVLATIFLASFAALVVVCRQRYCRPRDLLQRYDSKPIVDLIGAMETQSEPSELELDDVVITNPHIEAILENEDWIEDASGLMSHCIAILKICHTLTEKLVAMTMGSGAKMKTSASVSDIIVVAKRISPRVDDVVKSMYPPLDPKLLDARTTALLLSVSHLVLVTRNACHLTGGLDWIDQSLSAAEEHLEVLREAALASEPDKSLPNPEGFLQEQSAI
Assay: proximity labelling; BioID in stable ARPE-19 cells expressing TMEM98-BirA*, compared with BirA* alone; biotin in the medium for 24 hours; RIPA lysis; biotinylated proteins captured on streptavidin beads; mass spectrometry

- binding: binds
B1: MYRF (endogenous in ARPE-19 cells) (protein, UniProt Q9Y2G1 1-1151)
chain: MEVVDETEALQRFFEGHDINGALEPSNIDTSILEEYISKEDASDLCFPDISAPASSASYSHGQPAMPGSSGVHHLSPPGGGPSPGRHGPLPPPGYGTPLNCNNNNGMGAAPKPFPGGTGPPIKAEPKAPYAPGTLPDSPPDSGSEAYSPQQVNEPHLLRTITPETLCHVGVPSRLEHPPPPPAHLPGPPPPPPPPPHYPVLQRDLYMKAEPPIPHYAAMGQGLVPTDLHHTQQSQMLHQLLQQHGAELPTHPSKKRKHSESPPSTLNAQMLNGMIKQEPGTVTALPLHPTRAPSPPWPPQGPLSPGPGSLPLSIARVQTPPWHPPGAPSPGLLQDSDSLSGSYLDPNYQSIKWQPHQQNKWATLYDANYKELPMLTYRVDADKGFNFSVGDDAFVCQKKNHFQVTVYIGMLGEPKYVKTPEGLKPLDCFYLKLHGVKLEALNQSINIEQSQSDRSKRPFNPVTVNLPPEQVTKVTVGRLHFSETTANNMRKKGKPNPDQRYFMLVVALQAHAQNQNYTLAAQISERIIVRASNPGQFESDSDVLWQRAQVPDTVFHHGRVGINTDRPDEALVVHGNVKVMGSLMHPSDLRAKEHVQEVDTTEQLKRISRMRLVHYRYKPEFAASAGIEATAPETGVIAQEVKEILPEAVKDTGDMVFANGKTIENFLVVNKERIFMENVGAVKELCKLTDNLETRIDELERWSHKLAKLRRLDSLKSTGSSGAFSHAGSQFSRAGSVPHKKRPPKVASKSSSVVPDQACISQRFLQGTIIALVVVMAFSVVSMSTLYVLSLRTEEDLVDTDGSFAVSTSCLLALLRPQPPGGSEALCPWSSQSFGTTQLRQSPLTTGLPGIQPSLLLVTTSLTSSAPGSAVRTLDMCSSHPCPVICCSSPTTNPTTGPSLGPSFNPGHVLSPSPSPSTNRSGPSQMALLPVTNIRAKSWGLSVNGIGHSKHHKSLEPLASPAVPFPGGQGKAKNSPSLGFHGRARRGALQSSVGPAEPTWAQGQSASLLAEPVPSLTSIQVLENSMSITSQYCAPGDACRPGNFTYHIPVSSGTPLHLSLTLQMNSSSPVSVVLCSLRSKEEPCEEGSLPQSLHTHQDTQGTSHRWPITILSFREFTYHFRVALLGQANCSSEALAQPATDYHFHFYRLCD
modifications: biotinylated by TMEM98-BirA* (sites not given)
